At least one compound was matched to its structure with a doubt left.
System: human granulocytes
Test: Granulocyte chemotaxis (trans-well) towards nasal polyp secretions
Format: cell-based
Conditions: pre-treatment of AERD granulocytes
Method: Granulocyte recruitment (induced by chemokines or nasal polyp secretions) was assessed with or without pre-treatment with Hpb proteins by using trans-well assays. Migrated granulocytes were enumerated microscopically and by flow cytometry.
PMN were resuspended to a concentration of 1×10^6 cells/ml in the presence of 100 ng/ml human GM-CSF (Miltenyi Biotech) and overnight stimulated with 10 μg/ml HpbE. When mentioned, PMN were pre-treated with 1 μM fluticasone propionate (Sigma-Aldrich), 10 μM montelukast (Cayman Chemical) or conditioned media from MDM stimulated overnight with 10 μg/ml Hpb extract+/−100 μM Indomethacin for 1 hour. PMN migration in response to nasal polyp secretions or a chemokine cocktail of 2 ng/ml RANTES, 20 ng/ml IL-8 (Miltenyi Biotech) and 2 ng/ml LTB4 (Cayman Chemical) was tested. Chemoattractants were placed in the lower wells of a chemotaxis plate (3 μm pore size; Corning). After mounting the transwell unit, […] PMN were added to the top of each well and migration was allowed for 3 hours at 37° C., 5% CO2. The number of cells migrating to the lower well was counted microscopically. In some experiments, manual counting was validated by flow cytometry.

CC(C)(O)c1ccccc1CC[C@@H](SCC1(CC(=O)O)CC1)c1cccc(/C=C/c2ccc3ccc(Cl)cc3n2)c1 [Montelukast]
cell recruitment: migration of AERD patient granulocytes towards nasal polyp secretions ex vivo: not achieved
